The target of the test is h9-K5 (human). The experiment in a line: AUC + other: transmission electron microscopy; linear h9-K5 alone; conditions of these two experiments not given; both purified.

Results are given in words; binding and its absence hold for the method and conditions named.

On to FLIVIGSIIKKKKK [h9-K5], for which the binding result is given as “no binding”.
